Record: PubChem BioAssay AID1053208 (Peter MacCallum Cancer Centre, 2014)
Test: 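Genes whose silencing cuts survival of bone tumour cells only with doxorubicin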 (primary screen). Cells: mouse osteosarcoma cells, early-passage culture from an engineered mouse model of fibroblastic bone tumour. Reagents: siRNA pool against mouse genes, 40 nM. Duration: about 120 h (48 h before drug, then 72 h with drug). Challenge: doxorubicin 100 nM for 72 h, roughly 30-40% inhibitory dose. Detection: 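Viability read as ATP luminescence after 72 h of 100 nM doxorubicin or none, duplicate wells averaged, scaled to non-targeting siRNA, then expressed as robust z-scores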. Direction: viability z-score with doxorubicin and doxorubicin viability vs non-targeting: higher = more viable cells under doxorubicin; viability z-score without drug: higher = more viable cells with knock-down alone; z-score of drug to no-drug ratio: higher = less drug sensitisation by knock-down. Call rule: 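Called active if knock-down leaves viability unchanged without drug (z within -2 to 2) but lowers it with doxorubicin (z at or under -2)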.
In all, the deposit lists about 17,000 reagents; below is a random part of them. Over the whole deposit, 788 (4.7%) got an active call. 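Calls rest on z-score classes alone; an extra cut-off of viability at most 70% of control was not applied to them.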 Unmarked entries are inactive. A reagent listed more than once was tested more than once; the source does not tell the runs apart. Reagent sequences are not shown.

target gene,combined z-score class,viability z-score with doxorubicin,viability z-score without drug,z-score of drug to no-drug ratio,doxorubicin viability vs non-targeting
Stxbp2 (syntaxin binding protein 2),no change with or without drug,0.79,0.34,0.67,1.01
Spata3 (spermatogenesis associated 3),high cell count without drug only,1.35,2.19,0,1.06
"Zfpm1 (zinc finger protein, multitype 1)",high cell count with and without drug,2.36,2.19,0.9,1.15
Rxfp4 (relaxin family peptide receptor 4),no change with or without drug,0.22,-0.17,0.45,0.96
Slc12a2,no change with or without drug,-0.67,1.52,-1.46,0.88
"Mapre1 (microtubule-associated protein, RP/EB family, member 1)",no change with or without drug,0,-0.84,0.67,0.94
Rnf146 (ring finger protein 146),no change with or without drug,0,0.67,-0.34,0.94
H2ac8 (H2A clustered histone 8),no change with or without drug,0.9,0.84,0.45,1.02
Fas (Fas cell surface death receptor),no change with or without drug,0.22,-1.35,1.35,0.96
Kif5b (kinesin family member 5B),no change with or without drug,-0.9,-0.84,-0.22,0.86
Slc33a1,low cell count without drug only,-0.79,-2.36,1.01,0.87
Cdh3 (cadherin 3),no change with or without drug,1.69,1.18,1.01,1.09
Colec10 (collectin sub-family member 10),no change with or without drug,0.9,-0.17,1.24,1.02
Rps19bp1 (ribosomal protein S19 binding protein 1),no change with or without drug,0.22,1.35,-0.56,0.96
Gm5087 (predicted gene 5087),no change with or without drug,0.79,-0.51,1.35,1.01
Allc (allantoicase),no change with or without drug,0,0.17,0,0.94
Fig4 (FIG4 phosphoinositide 5-phosphatase),no change with or without drug,-1.57,-0.84,-1.01,0.8
"Lamp5 (lysosomal-associated membrane protein family, member 5)",no change with or without drug,-1.35,1.69,-2.25,0.82
B130040O20Rik (RIKEN cDNA B130040O20 gene),no change with or without drug,-1.57,-0.34,-1.35,0.8
Slco1a4,no change with or without drug,1.35,0.67,1.01,1.06
Krtap4-7 (keratin associated protein 4-7),no change with or without drug,1.8,1.35,1.01,1.1
4921511C20Rik (RIKEN cDNA 4921511C20 gene),no change with or without drug,-0.79,-0.34,-0.45,0.87
"Fam204a (family with sequence similarity 204, member A)",low cell count with doxorubicin only (active),-2.02,-0.51,-1.69,0.76
Slc22a22,no change with or without drug,1.01,-0.17,1.35,1.03
Acer3 (alkaline ceramidase 3),no change with or without drug,-1.35,-0.51,-1.01,0.82
"Tbc1d12 (TBC1D12: TBC1 domain family, member 12)",high cell count with doxorubicin only,2.02,1.85,0.9,1.12
2700050F09RIK,no change with or without drug,1.12,1.18,0.45,1.04
Erp27 (endoplasmic reticulum protein 27),no change with or without drug,-0.79,1.52,-1.57,0.87
Pnck (pregnancy upregulated non-ubiquitously expressed CaM kinase),low cell count with doxorubicin only (active),-3.37,1.18,-3.93,0.64
Hacl1 (2-hydroxyacyl-CoA lyase 1),high cell count with doxorubicin only,3.15,0.34,3.15,1.22
Hoxa10 (homeobox A10),no change with or without drug,0.9,0.17,0.9,1.02
Dhrs7b (dehydrogenase/reductase 7B),no change with or without drug,0.11,-0.17,0.34,0.95
Gm4793 (predicted gene 4793),no change with or without drug,-1.12,-0.51,-0.79,0.84
"Tgm3 (transglutaminase 3, E polypeptide)",no change with or without drug,1.46,1.52,0.56,1.07
Asf1b (anti-silencing function 1B histone chaperone),no change with or without drug,-1.35,0.51,-1.57,0.82
Zfp53 (zinc finger protein 53),no change with or without drug,0.9,0.34,0.79,1.02
Or5w13 (olfactory receptor family 5 subfamily W member 13),no change with or without drug,0,-0.51,0.45,0.94
C1galt1,no change with or without drug,0.67,-0.17,0.9,1
Or51i2 (olfactory receptor family 51 subfamily I member 2),no change with or without drug,-0.45,1.01,-1.01,0.9
4932435O22Rik (RIKEN cDNA 4932435O22 gene),no change with or without drug,1.35,-1.52,2.81,1.06
Vmn1r188 (vomeronasal 1 receptor 188),high cell count with and without drug,4.27,3.71,1.69,1.32
Dnajc4 (DnaJ heat shock protein family (Hsp40) member C4),no change with or without drug,0.67,1.85,-0.45,1
Mfrp (membrane frizzled-related protein),no change with or without drug,1.57,0.84,1.12,1.08
"Ttll12 (tubulin tyrosine ligase-like family, member 12)",no change with or without drug,-0.22,-0.34,0.11,0.92
Txnl4b (thioredoxin-like 4B),no change with or without drug,-1.01,-0.17,-0.9,0.85
Mcts1 (malignant T cell amplified sequence 1),no change with or without drug,1.8,0.17,1.91,1.1
Smc6 (structural maintenance of chromosomes 6),no change with or without drug,-0.9,-0.17,-0.79,0.86
HMGB2,no change with or without drug,0.9,0.17,0.9,1.02
Alox5ap (arachidonate 5-lipoxygenase activating protein),no change with or without drug,0.67,0.34,0.56,1
Eif6 (eukaryotic translation initiation factor 6),no change with or without drug,-1.57,-0.51,-1.24,0.8
Ly6g5c (lymphocyte antigen 6 family member G5C),no change with or without drug,1.57,0.51,1.35,1.08
Klhdc7a (kelch domain containing 7A),no change with or without drug,0.22,-1.01,1.12,0.96
Lce1c (late cornified envelope 1C),no change with or without drug,-0.67,-0.17,-0.45,0.88
Lce1c (late cornified envelope 1C),no change with or without drug,0.11,-0.17,0.34,0.95
Slc9a4,no change with or without drug,0.9,-0.34,1.35,1.02
Aoc1l2 (amine oxidase copper containing 1-like 2),no change with or without drug,1.12,0.84,0.67,1.04
Rrm2 (ribonucleotide reductase M2),low cell count with doxorubicin only (active),-3.37,-1.69,-2.59,0.64
Mrps10 (mitochondrial ribosomal protein S10),low cell count without drug only,0.22,-2.53,2.47,0.96
H2al2a (H2A histone family member L2A),high cell count without drug only,0.56,2.53,-0.9,0.99
Phkb (phosphorylase kinase beta),no change with or without drug,-0.11,0,0,0.93
Glod5 (glyoxalase domain containing 5),no change with or without drug,0,0.84,-0.45,0.94
4931432E15Rik (RIKEN cDNA 4931432E15 gene),no change with or without drug,1.12,1.85,0,1.04
Or6s1 (olfactory receptor family 6 subfamily S member 1),no change with or without drug,0,1.52,-0.9,0.94
